{"source": "PubChem BioAssay AID1159584, Peter MacCallum Cancer Centre – 2016", "aim": "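Genes that CDH1-null MCF10A cells selectively depend on to survive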 (primary screen)", "cells": "human MCF10A breast epithelial cells, parental and CDH1-null", "reagent": "siRNA against human genes", "read-out": "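Cell viability by CellTiter-Glo ATP luminescence, each line scaled to the mean of mock wells across plates, then CDH1-null over parental ratio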", "direction": "CDH1-null / parental viability ratio: higher = CDH1-null cells survive relatively better than parental", "note": "The whole screen tested about 18,000 reagents; this is a random part of them. Not all columns of the deposit are shown. Reagent sequences are not shown. The record does not give: the amount of reagent, the time to read-out."}
{"target gene": "H1-8 (H1.8 linker histone)", "CDH1-null / parental viability ratio": 1.1}
{"target gene": "SYNJ1 (synaptojanin 1)", "CDH1-null / parental viability ratio": 1.06}
{"target gene": "TAF6L (TATA-box binding protein associated factor 6 like)", "CDH1-null / parental viability ratio": 0.99}
{"target gene": "BUD13 (BUD13 spliceosome associated protein)", "CDH1-null / parental viability ratio": 0.87}
{"target gene": "JAK2 (Janus kinase 2)", "CDH1-null / parental viability ratio": 0.76}
{"target gene": "CACNG5 (calcium voltage-gated channel auxiliary subunit gamma 5)", "CDH1-null / parental viability ratio": 1.39}
{"target gene": "XXYLT1 (xyloside xylosyltransferase 1)", "CDH1-null / parental viability ratio": 0.81}
{"target gene": "SLC25A5", "CDH1-null / parental viability ratio": 1.18}
{"target gene": "USP28 (ubiquitin specific peptidase 28)", "CDH1-null / parental viability ratio": 1.19}
{"target gene": "USP35 (ubiquitin specific peptidase 35)", "CDH1-null / parental viability ratio": 1.09}
{"target gene": "ZNF224 (zinc finger protein 224)", "CDH1-null / parental viability ratio": 0.56}
{"target gene": "THBS1 (thrombospondin 1)", "CDH1-null / parental viability ratio": 1.16}
{"target gene": "NPM2 (nucleophosmin/nucleoplasmin 2)", "CDH1-null / parental viability ratio": 1.21}
{"target gene": "YTHDC2 (YTH N6-methyladenosine RNA binding protein C2)", "CDH1-null / parental viability ratio": 1.12}
{"target gene": "LHFPL6 (LHFPL tetraspan subfamily member 6)", "CDH1-null / parental viability ratio": 1.12}
{"target gene": "SIRT4 (sirtuin 4)", "CDH1-null / parental viability ratio": 1.13}
{"target gene": "FAM222A (family with sequence similarity 222 member A)", "CDH1-null / parental viability ratio": 0.94}
{"target gene": "GMFB (glia maturation factor beta)", "CDH1-null / parental viability ratio": 1.28}
{"target gene": "DUX4L1 (double homeobox 4 like 1 (pseudogene))", "CDH1-null / parental viability ratio": 1.44}
{"target gene": "S1PR4 (sphingosine-1-phosphate receptor 4)", "CDH1-null / parental viability ratio": 1.42}
{"target gene": "FKBP14 (FKBP prolyl isomerase 14)", "CDH1-null / parental viability ratio": 1.24}
{"target gene": "LYPD4 (LY6/PLAUR domain containing 4)", "CDH1-null / parental viability ratio": 1.16}
{"target gene": "MAG (myelin associated glycoprotein)", "CDH1-null / parental viability ratio": 0.84}
{"target gene": "ZNF689 (zinc finger protein 689)", "CDH1-null / parental viability ratio": 1.01}
{"target gene": "H2AZ2 (H2A.Z variant histone 2)", "CDH1-null / parental viability ratio": 0.86}
{"target gene": "FGF7 (fibroblast growth factor 7)", "CDH1-null / parental viability ratio": 0.92}
{"target gene": "NAA20 (N-alpha-acetyltransferase 20, NatB catalytic subunit)", "CDH1-null / parental viability ratio": 1.24}
{"target gene": "CD48 (CD48 molecule)", "CDH1-null / parental viability ratio": 1.07}
{"target gene": "TBC1D4 (TBC1 domain family member 4)", "CDH1-null / parental viability ratio": 1.02}
{"target gene": "FBXL7 (F-box and leucine rich repeat protein 7)", "CDH1-null / parental viability ratio": 1.06}
{"target gene": "VENTX (VENT homeobox)", "CDH1-null / parental viability ratio": 1.12}
{"target gene": "SLC5A6", "CDH1-null / parental viability ratio": 1.05}
{"target gene": "EMC8 (ER membrane protein complex subunit 8)", "CDH1-null / parental viability ratio": 0.99}
{"target gene": "RAB21 (RAB21, member RAS oncogene family)", "CDH1-null / parental viability ratio": 0.91}
{"target gene": "ZFTRAF1 (zinc finger TRAF-type and ring finger containing 1)", "CDH1-null / parental viability ratio": 1.03}
{"target gene": "DAPK3 (death associated protein kinase 3)", "CDH1-null / parental viability ratio": 1.03}
{"target gene": "ESR1 (estrogen receptor 1)", "CDH1-null / parental viability ratio": 0.89}
{"target gene": "SNTB1 (syntrophin beta 1)", "CDH1-null / parental viability ratio": 0.83}
{"target gene": "ATP2B2 (ATPase plasma membrane Ca2+ transporting 2)", "CDH1-null / parental viability ratio": 1.18}
{"target gene": "UBXN4 (UBX domain protein 4)", "CDH1-null / parental viability ratio": 1.2}
{"target gene": "SRSF12 (serine and arginine rich splicing factor 12)", "CDH1-null / parental viability ratio": 1.36}
{"target gene": "PPP2R2A (protein phosphatase 2 regulatory subunit Balpha)", "CDH1-null / parental viability ratio": 1.67}
{"target gene": "CEP131 (centrosomal protein 131)", "CDH1-null / parental viability ratio": 0.92}
{"target gene": "DCXR (dicarbonyl and L-xylulose reductase)", "CDH1-null / parental viability ratio": 0.89}
{"target gene": "PTGES3 (prostaglandin E synthase 3)", "CDH1-null / parental viability ratio": 0.98}

7 entries already listed, ordered by “CDH1-null / parental viability ratio”, ascending.
{"target gene": "FAM222A (family with sequence similarity 222 member A)", "CDH1-null / parental viability ratio": 0.94}
{"target gene": "SIRT4 (sirtuin 4)", "CDH1-null / parental viability ratio": 1.13}
{"target gene": "LYPD4 (LY6/PLAUR domain containing 4)", "CDH1-null / parental viability ratio": 1.16}
{"target gene": "FKBP14 (FKBP prolyl isomerase 14)", "CDH1-null / parental viability ratio": 1.24}
{"target gene": "GMFB (glia maturation factor beta)", "CDH1-null / parental viability ratio": 1.28}
{"target gene": "S1PR4 (sphingosine-1-phosphate receptor 4)", "CDH1-null / parental viability ratio": 1.42}
{"target gene": "DUX4L1 (double homeobox 4 like 1 (pseudogene))", "CDH1-null / parental viability ratio": 1.44}
